Data published in patent US20220162561A1, “COMPOSITION FOR PROMOTING SECRETION OF EXTRACELLULAR VESICLES” (priority 2019, published 2022).
Some entries share one result that the patent states for a list of compounds.

Assays:
Assay type in all cases: cell-based
[1] = system: mesenchymal stem cells derived from human bone marrow; test: Test Example 9: cell proliferation activity (cell viability), CellTiter-Glo
Procedure: (§1) Mesenchymal stem cells derived from human bone marrow or mesenchymal stem cells derived from human umbilical cord matrix (#C-12974, #C-12971 manufactured by Takara Bio Inc.) were suspended in mesenchymal stem cell growth medium 2 (C-28009 manufactured by Takara Bio Inc.) so as to be 2×10^3 cells/90 μL, and seeded on a 96-well cell culture treatment plate (3585 manufactured by Corning Inc.). To the seeded mesenchymal stem cells was added each 10 μL of the compounds of Examples 1 to 8 diluted to 10-fold concentration with the mesenchymal stem cell growth medium 2, and the cells were cultured for 24 hours. Next, according to the following method, the number of living cells was measured using CellTiter-Glo (Registered Trademark) Luminescent Cell Viability Assay (G7570 manufactured by Promega).
(§2) CellTiter-Glo (Registered Trademark) Substrate was dissolved in CellTiter-Glo (Registered Trademark) Buffer. The prepared solution was added to each well with 100 μL/well, then, 100 μL thereof was apportioned to a 96-well cell culture treatment white plate (356701 manufactured by Corning Inc.), and luminescence was measured with Enspire (manufactured by PerkinElmer). A relative value when the compound untreated group (control) was set to 1 was calculated.

[2] = system: mesenchymal stem cells derived from human umbilical cord matrix; test: as above
Procedure: as §1, §2

[3] = system: mesenchymal stem cells derived from human adipose tissue; test: Test Example 3: promotion of secretion of extracellular vesicles, PS Capture exosome ELISA (anti-CD63); conditions: text summary of Test Example 3
Procedure: Mesenchymal stem cells derived from the human adipose tissue (#C-12977 manufactured by Takara Bio Inc.) were suspended in mesenchymal stem cell growth medium 2 (C-28009 manufactured by Takara Bio Inc.) so as to be 8×10^4 cells/1.8 mL, and seeded on a 6-well cell culture treatment plate (3516 manufactured by Corning Inc.). To the seeded mesenchymal stem cells derived from human adipose tissue was added 200 μL of the compound solution of each of Examples 1 to 8 diluted to 10-fold concentration with the mesenchymal stem cell growth medium 2, or mesenchymal stem cell growth medium alone (control), and after culturing for 24 hours, the culture solution was recovered. Subsequently, the recovered culture solution was centrifuged by 20,000×g at 4° C. for 60 minutes to prepare a culture solution from which cell fragments and Large Extracellular Vesicles were removed. […]
To Reaction/Washing Buffer (10×) diluted 10-fold with purified water was added 1/100 amount of Exosome Binding Enhancer (100×) to prepare a Reaction/Washing Buffer (1×). […] After completion of the reaction, 100 μL of Stop Solution was added thereto, and after shaking with a microplate shaker for 5 seconds, the absorbance at 450 nm and 620 nm was measured with Enspire (manufactured by PerkinElmer), and the absorbance at 620 nm was subtracted from the absorbance at 450 nm for each well.

[4] = system: mesenchymal stem cells derived from human adipose tissue; test: Test Example 5: cell proliferation activity (cell viability), CellTiter-Glo
Procedure: Mesenchymal stem cells derived from the human adipose tissue (#C-12977 manufactured by Takara Bio Inc.) were suspended in mesenchymal stem cell growth medium 2 (C-28009 manufactured by Takara Bio Inc.) so as to be 2×10^3 cells/90 μL, and seeded on a 96-well cell culture treatment plate (3585 manufactured by Corning Inc.). To the seeded mesenchymal stem cells derived from human adipose tissue was added 10 μL of the compound solution of each of Examples 1 to 8 diluted to 10-fold concentration with the mesenchymal stem cell growth medium 2, or mesenchymal stem cell growth medium alone (control), and the cells were cultured for 24 hours. Subsequently, the number of living cells was measured as follows using CellTiter-Glo (Registered Trademark) Luminescent Cell Viability Assay (G7570 manufactured by Promega). 100 μL well of a solution in which CellTiter-Glo (trademark) Substrate was dissolved in CellTiter-Glo (trademark) Buffer was added to each well of the above-mentioned 96-well cell culture treatment plate, and then, 100 μL thereof was transferred to 96-well cell culture treatment white plate (356701 manufactured by Corning Inc.), and the luminescence was measured with Enspire (manufactured by PerkinElmer).

[5] = system: human bone marrow-derived mesenchymal stem cells; test: Test Example 7: promotion of secretion of extracellular vesicles, PS Capture exosome ELISA (anti-CD63); conditions: text summary of Test Example 7
Procedure: (§3) Human bone marrow-derived mesenchymal stem cells or human umbilical cord matrix-derived mesenchymal stem cells (#C-12974, #C-12971 manufactured by Takara Bio Inc.) were suspended in mesenchymal stem cell growth medium 2 (C-28009 manufactured by Takara Bio Inc.) so as to be 8×10^4 cells/1.8 mL, and seeded on a 6-well cell culture treatment plate (3516 manufactured by Corning Inc.). To the seeded mesenchymal stem cells was added each 200 μL of the compounds of Examples 1 to 8 diluted to 10-fold concentration with the mesenchymal stem cell growth medium 2, and after culturing for 24 hours, the culture solution was recovered. Subsequently, the recovered culture solution was centrifuged under 20,000×g at 4° C. for 60 minutes to prepare a culture solution from which cell fragments and Large Extracellular Vesicles were removed. For the detection of extracellular vesicles, PS Capture (trademark) exosome ELISA kit (anti-mouse IgG POD) (#297-79201 manufactured by FUJIFILM Wako Pure Chemical Corporation) was used.
(§4) To Reaction/Washing Buffer (1×) prepared by diluting Reaction/Washing Buffer (10×) 10-fold with purified water was added 1/100 amount of Exosome Binding Enhancer (100×) to prepare a Reaction/Washing Buffer (1×). Each culture solution was diluted 5-fold with the Reaction/Washing Buffer (1×). After washing Exosome Capture 96-well plate with 300 μL of the Reaction/Washing Buffer (1×) three times, 5-fold-diluted each extracellular vesicle solution, or the mesenchymal stem cell growth medium 2 in which no cell was cultured (negative control) was added to each well, and the mixture was reacted at room temperature for 2 hours while shaking with a microplate shaker. After completion of the reaction, the reaction mixture was discarded, and after washing each well with 300 μL of the Reaction/Washing Buffer (1×) three times, 100 μL of Primary Antibody Anti-CD63 (×100) diluted to 1,000-fold with the Reaction/Washing Buffer (1×) was added thereto, and the mixture were reacted at room temperature for 1 hour while shaking with a microplate shaker. […] After completion of the reaction, 100 μL of Stop Solution was added thereto, and after shaking with a microplate shaker for 5 seconds, the absorbance at 450 nm and 620 nm was measured with Enspire (manufactured by PerkinElmer). Based on the obtained measured values, a value subtracting the absorbance at 620 nm from the absorbance at 450 nm was calculated and a relative value when the compound untreated group (control) was set to 1 was calculated.

[6] = system: human umbilical cord matrix-derived mesenchymal stem cells; test: as above; conditions: text summary of Test Example 7
Procedure: as §3, §4

[7] = system: mesenchymal stem cells derived from human adipose tissue; test: Test Example 4: cytotoxicity, LDH activity in culture solution
Procedure: Mesenchymal stem cells derived from the human adipose tissue (#C-12977 manufactured by Takara Bio Inc.) were suspended in mesenchymal stem cell growth medium 2 (C-28009 manufactured by Takara Bio Inc.) so as to be 8×10^4 cells/1.8 mL, and seeded on a 6-well cell culture treatment plate (3516 manufactured by Corning Inc.). To the seeded mesenchymal stem cells derived from human adipose tissue was added 200 μL of the compound solution of each of Examples 1 to 8 diluted to 10-fold concentration with the mesenchymal stem cell growth medium 2, or mesenchymal stem cell growth medium alone (control), and after culturing for 24 hours, the culture solution was recovered. The activity of lactate dehydrogenase (LDH) contained in the recovered culture solution was measured by using LDH Cytotoxicity Detection Kit (MK401 manufactured by Takara Bio Inc.) as follows. To a freeze-dried product of Solution A was added 1 mL of purified water to completely dissolve therein, then, 250 μL of Solution A and 11.25 mL of Solution B were mixed to prepare Solution C. To 100 μL of the recovered culture solution was added 100 μL of Solution C, and the mixture was reacted at room temperature for 30 minutes. Absorbance at 490 nm was measured using Enspire (manufactured by PerkinElmer).

[8] = system: mesenchymal stem cells derived from human bone marrow; test: Test Example 8: cytotoxicity, LDH activity in culture solution
Procedure: (§5) Mesenchymal stem cells derived from human bone marrow or mesenchymal stem cells derived from human umbilical cord matrix (#C-12974, #C-12971 manufactured by Takara Bio Inc.) were suspended in mesenchymal stem cell growth medium 2 (C-28009 manufactured by Takara Bio Inc.) so as to be 8×10^4 cells/1.8 mL, and seeded on a 6-well cell culture treatment plate (3516 manufactured by Corning Inc.). To the seeded mesenchymal stem cells was added each 200 μL of the compounds of Examples 1 to 8 diluted to 10-fold concentration with the mesenchymal stem cell growth medium 2, and after culturing for 24 hours, the culture solution was recovered. The activity of lactate dehydrogenase (LDH) contained in the recovered culture solution was measured by using LDH Cytotoxicity Detection Kit (MK401 manufactured by Takara Bio Inc.). To a freeze-dried product of Solution A was added 1 mL of purified water to completely dissolve therein, then, 250 μL of Solution A and 11.25 mL of Solution B were mixed to prepare Solution C. To 100 μL of the recovered culture solution was added 100 μL of Solution C, and the mixture was reacted at room temperature for 30 minutes. Absorbance at 490 nm was measured using Enspire (manufactured by PerkinElmer). Based on the obtained measured values, a relative value when the compound untreated group (control) was set to 1 was calculated.

[9] = system: mesenchymal stem cells derived from human umbilical cord matrix; test: as above
Procedure: as §5

[10] = concentration of at least about 50 nM or less
[11] = concentration of at least about 2 μM or less

Compound: COC1=CC(c2cc3ccccc3[nH]2)=N/C1=C\c1[nH]c(C)cc1C.CS(=O)(=O)O [Example 5, Obatoclax Mesylate]
- effect on the proliferative activity [1, 10]: does not have a significant effect
- effect on the proliferative activity [2, 10]: does not have a significant effect
- amount of secretion of CD63-positive extracellular vesicles [3]: promoted
- effect on the proliferative activity [4, 10]: does not have a significant effect
- amount of secretion of CD63-positive extracellular vesicles [5]: promoted
- amount of secretion of CD63-positive extracellular vesicles [6]: promoted
- cytotoxicity (LDH amount in the culture supernatant) [7, 10]: low cytotoxicity
- cytotoxicity (LDH amount in the culture supernatant) [8, 10]: low cytotoxicity
- cytotoxicity (LDH amount in the culture supernatant) [9, 10]: low cytotoxicity

Compound: Cc1cc2c(C(=O)NC[C@H](C)c3ccccc3)c(O)c(O)cc2c(O)c1-c1c(C)cc2c(C(=O)NC[C@H](C)c3ccccc3)c(O)c(O)cc2c1O [Example 8, Sabutoclax]
- effect on the proliferative activity [1, 11]: does not have a significant effect
- effect on the proliferative activity [2, 11]: does not have a significant effect
- amount of secretion of CD63-positive extracellular vesicles [3]: promoted
- effect on the proliferative activity [4, 11]: does not have a significant effect
- amount of secretion of CD63-positive extracellular vesicles [5]: promoted
- amount of secretion of CD63-positive extracellular vesicles [6]: promoted
- cytotoxicity (LDH amount in the culture supernatant) [7, 11]: low cytotoxicity
- cytotoxicity (LDH amount in the culture supernatant) [8, 11]: low cytotoxicity
- cytotoxicity (LDH amount in the culture supernatant) [9, 11]: low cytotoxicity
